PubChem BioAssay AID1259285 | Sanger Institute | 2017
The whole screen tested 794 reagents; shown is a random part of them. In the full data, 20 (2.5%) are marked active. 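Calls rest on the drug-free arm alone and ignore synergy scores; viability ratios seem to be capped at 1.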 A number with no mark means an inactive call. Not all columns of the deposit are shown. No sequences are given here. Not given: the amount of reagent, the time to read-out.

- Purpose: 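Kinases needed for HCC56 growth and kinases whose loss boosts drug effects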 (primary screen)
- Cells: human HCC56 colorectal cancer cells
- Reagent: siRNA pool against human genes
- Conditions: DMSO vehicle, or anchor drug BYL719 at 1 µM, cetuximab at 5 µg/ml, or trametinib at 10 nM
- Measured: 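Replicate-averaged viability relative to non-targeting siRNA, expressed as a robust z-score from controls, plus a synergy score for each of three anchor drugs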
- Scale: viability robust z-score, no drug: higher = more viable cells, weaker knock-down effect
- Hit rule: 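a knock-down counts as essential if its viability z-score without drug is under -3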
- Calls: active = essential without drug; inactive = no change without drug

For MYLK2, the values are viability robust z-score, no drug -0.187. PBK scored viability robust z-score, no drug 0.458. With knock-down of TP53RK, the record shows viability robust z-score, no drug 0.458. STK26 gave viability robust z-score, no drug 0.458. For CAD, the entry reads viability robust z-score, no drug 0.458. After knock-down of ACVR1C, the record shows viability robust z-score, no drug 0.458.

For TGFBR3, the values are viability robust z-score, no drug 0.458. With knock-down of DAPK1, the record shows viability robust z-score, no drug -0.568. CDK3 showed viability robust z-score, no drug 0.458. Knock-down of CLK2 came out at: viability robust z-score, no drug 0.458. Against KCNH2 the deposit lists viability robust z-score, no drug -0.0369. For MAP4K3, the entry reads viability robust z-score, no drug 0.289.

Already shown: an excerpt of the list.
MYLK2: viability robust z-score, no drug = -0.187
PBK: viability robust z-score, no drug = 0.458
